# Experimental data published in patent publication US20200187500A1 (priority 2017, published 2020).
# Some of these results come from one statement about several compounds together.
# Columns and labels:
# [1] = tested on: Botrytis cinerea; experiment: Preventative fungicidal control of Botrytis cinerea on leaves of green pepper (green house); format: in vivo; conditions: 250 ppm, sprayed to run-off; inoculated the next day; assessed after 5 days; untreated plants 80% infected
# [2] = tested on: Botrytis cinerea; experiment: Long lasting control of Botrytis cinerea on leaves of green pepper (green house); format: in vivo; conditions: 250 ppm, sprayed to run-off; inoculated after 7 days in greenhouse; assessed after 5 days; untreated plants 90% infected
smiles,measurement,setting,value
"Cc1cc(C2NC(C)(CC=C(Cl)Cl)Cc3ccccc32)cnc1C(F)F (centres unmarked) [I-1, 3-(3,3-dichloroallyl)-1-[6-(difluoromethyl)-5-methyl-3-pyridyl]-3-methyl-2,4-dihydro-1H-isoquinoline]",growth of the pathogen (% diseased leaf area),[1],at most 4%
same,growth of the pathogen (% diseased leaf area),[2],at most 7%
